Results from PMC5419078.
No constants are given. Whether binding was seen depends on the method and setting.

Amino acid sequences for entries named in this document (tags omitted). Residues count along the entry.
UniProt P20333, residues 23-257: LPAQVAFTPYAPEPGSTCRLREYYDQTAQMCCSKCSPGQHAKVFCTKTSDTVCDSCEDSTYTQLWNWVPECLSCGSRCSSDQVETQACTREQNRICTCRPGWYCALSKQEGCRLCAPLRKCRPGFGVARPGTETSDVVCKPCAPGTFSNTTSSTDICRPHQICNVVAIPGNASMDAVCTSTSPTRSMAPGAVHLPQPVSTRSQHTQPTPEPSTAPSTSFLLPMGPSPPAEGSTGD

Target: Alexa Fluor 488-labeled etanercept (human) (UniProt P20333)
Experiment: AUC; FDS-SV, 25 nM Alexa Fluor 488-labeled antagonist with 0–25 nM TNF in PBS with 0.1 mg/mL lysozyme, incubated at 20°C for 2 hours, 42,000 rpm; both purified

In the case of “Alexa Fluor 488-labeled etanercept (from UniProt P20333 23-257) (Fc fusion)”, the binding is reported as “no binding (tested: 25 nM)”.
